Drawing on article PMC7984809, this text covers binding for 1 substance.

The chains behind the UniProt entries cited, without tags or fusion partners.
UniProt Q13263: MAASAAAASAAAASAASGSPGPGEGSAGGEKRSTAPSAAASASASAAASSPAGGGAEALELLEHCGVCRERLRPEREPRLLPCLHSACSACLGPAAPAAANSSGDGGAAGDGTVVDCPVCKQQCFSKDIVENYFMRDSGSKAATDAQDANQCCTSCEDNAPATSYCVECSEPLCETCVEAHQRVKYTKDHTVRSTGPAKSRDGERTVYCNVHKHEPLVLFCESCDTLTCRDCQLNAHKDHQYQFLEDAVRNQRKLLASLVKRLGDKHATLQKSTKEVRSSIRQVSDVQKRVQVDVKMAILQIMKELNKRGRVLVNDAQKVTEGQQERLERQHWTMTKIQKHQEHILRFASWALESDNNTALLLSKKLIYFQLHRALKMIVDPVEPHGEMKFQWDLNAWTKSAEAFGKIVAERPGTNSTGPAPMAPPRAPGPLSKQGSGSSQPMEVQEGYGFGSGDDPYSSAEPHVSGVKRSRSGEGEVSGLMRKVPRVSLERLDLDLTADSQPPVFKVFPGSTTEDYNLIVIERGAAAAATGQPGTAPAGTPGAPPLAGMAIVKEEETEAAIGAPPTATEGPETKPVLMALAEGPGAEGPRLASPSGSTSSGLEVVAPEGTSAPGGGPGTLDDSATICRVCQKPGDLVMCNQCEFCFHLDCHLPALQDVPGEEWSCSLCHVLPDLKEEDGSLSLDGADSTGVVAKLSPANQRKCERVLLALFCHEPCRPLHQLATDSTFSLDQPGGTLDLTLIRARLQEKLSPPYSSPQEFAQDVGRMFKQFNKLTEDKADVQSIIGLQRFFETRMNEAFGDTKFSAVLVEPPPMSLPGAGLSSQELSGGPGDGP

No constants are given. Whether binding was seen depends on the method and setting. Binding seen in cells or lysates may run through a third protein. A yes stands for co-enrichment or nearness to the bait. Other partners may have been found. Sequences can lack the tags named with a protein.

For this assay, the target named is T1, GFP-TRDMT1 (UniProt O14717).
T1 sequence: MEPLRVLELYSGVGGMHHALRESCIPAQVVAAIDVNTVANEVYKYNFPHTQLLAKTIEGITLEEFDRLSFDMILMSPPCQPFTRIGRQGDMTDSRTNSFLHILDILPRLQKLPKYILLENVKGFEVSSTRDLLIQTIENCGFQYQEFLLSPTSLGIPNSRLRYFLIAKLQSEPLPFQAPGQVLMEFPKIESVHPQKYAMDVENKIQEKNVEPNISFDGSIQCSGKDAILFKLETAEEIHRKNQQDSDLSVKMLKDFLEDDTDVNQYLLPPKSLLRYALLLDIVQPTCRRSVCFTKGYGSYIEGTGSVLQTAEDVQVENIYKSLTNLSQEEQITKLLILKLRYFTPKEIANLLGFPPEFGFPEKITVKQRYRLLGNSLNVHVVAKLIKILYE
Nature of the assay: affinity purification with mass spectrometry; GFP-TRDMT1 captured from whole cell lysates of stably expressing Flp-in 293 cells by anti-GFP nanobody on magnetic dynabeads; cells with or without 2 mM H2O2 for 3 h; 20 mM HEPES, 0.5% TritonX-100, 150 or 300 mM NaCl; wild-type 293 cells as control; LC/MS.

TRIM28 (from UniProt Q13263 1-835): the binding entry is “binds”.
